From publication PMC6538630
No constants are given. Whether binding was seen depends on the method and setting. In cells and extracts the contact can be indirect. Some binding calls cover weakened binding; strength is not graded here.

Sequences of proteins named here, by UniProt entry; tags and fusion partners are left off. A change or cut given only in a name is not applied to a line headed by its entry. A line that says so, or that is headed by a name, gives the form on record, which may keep a tag or linker. Residues count along the entry.
UniProt Q92673: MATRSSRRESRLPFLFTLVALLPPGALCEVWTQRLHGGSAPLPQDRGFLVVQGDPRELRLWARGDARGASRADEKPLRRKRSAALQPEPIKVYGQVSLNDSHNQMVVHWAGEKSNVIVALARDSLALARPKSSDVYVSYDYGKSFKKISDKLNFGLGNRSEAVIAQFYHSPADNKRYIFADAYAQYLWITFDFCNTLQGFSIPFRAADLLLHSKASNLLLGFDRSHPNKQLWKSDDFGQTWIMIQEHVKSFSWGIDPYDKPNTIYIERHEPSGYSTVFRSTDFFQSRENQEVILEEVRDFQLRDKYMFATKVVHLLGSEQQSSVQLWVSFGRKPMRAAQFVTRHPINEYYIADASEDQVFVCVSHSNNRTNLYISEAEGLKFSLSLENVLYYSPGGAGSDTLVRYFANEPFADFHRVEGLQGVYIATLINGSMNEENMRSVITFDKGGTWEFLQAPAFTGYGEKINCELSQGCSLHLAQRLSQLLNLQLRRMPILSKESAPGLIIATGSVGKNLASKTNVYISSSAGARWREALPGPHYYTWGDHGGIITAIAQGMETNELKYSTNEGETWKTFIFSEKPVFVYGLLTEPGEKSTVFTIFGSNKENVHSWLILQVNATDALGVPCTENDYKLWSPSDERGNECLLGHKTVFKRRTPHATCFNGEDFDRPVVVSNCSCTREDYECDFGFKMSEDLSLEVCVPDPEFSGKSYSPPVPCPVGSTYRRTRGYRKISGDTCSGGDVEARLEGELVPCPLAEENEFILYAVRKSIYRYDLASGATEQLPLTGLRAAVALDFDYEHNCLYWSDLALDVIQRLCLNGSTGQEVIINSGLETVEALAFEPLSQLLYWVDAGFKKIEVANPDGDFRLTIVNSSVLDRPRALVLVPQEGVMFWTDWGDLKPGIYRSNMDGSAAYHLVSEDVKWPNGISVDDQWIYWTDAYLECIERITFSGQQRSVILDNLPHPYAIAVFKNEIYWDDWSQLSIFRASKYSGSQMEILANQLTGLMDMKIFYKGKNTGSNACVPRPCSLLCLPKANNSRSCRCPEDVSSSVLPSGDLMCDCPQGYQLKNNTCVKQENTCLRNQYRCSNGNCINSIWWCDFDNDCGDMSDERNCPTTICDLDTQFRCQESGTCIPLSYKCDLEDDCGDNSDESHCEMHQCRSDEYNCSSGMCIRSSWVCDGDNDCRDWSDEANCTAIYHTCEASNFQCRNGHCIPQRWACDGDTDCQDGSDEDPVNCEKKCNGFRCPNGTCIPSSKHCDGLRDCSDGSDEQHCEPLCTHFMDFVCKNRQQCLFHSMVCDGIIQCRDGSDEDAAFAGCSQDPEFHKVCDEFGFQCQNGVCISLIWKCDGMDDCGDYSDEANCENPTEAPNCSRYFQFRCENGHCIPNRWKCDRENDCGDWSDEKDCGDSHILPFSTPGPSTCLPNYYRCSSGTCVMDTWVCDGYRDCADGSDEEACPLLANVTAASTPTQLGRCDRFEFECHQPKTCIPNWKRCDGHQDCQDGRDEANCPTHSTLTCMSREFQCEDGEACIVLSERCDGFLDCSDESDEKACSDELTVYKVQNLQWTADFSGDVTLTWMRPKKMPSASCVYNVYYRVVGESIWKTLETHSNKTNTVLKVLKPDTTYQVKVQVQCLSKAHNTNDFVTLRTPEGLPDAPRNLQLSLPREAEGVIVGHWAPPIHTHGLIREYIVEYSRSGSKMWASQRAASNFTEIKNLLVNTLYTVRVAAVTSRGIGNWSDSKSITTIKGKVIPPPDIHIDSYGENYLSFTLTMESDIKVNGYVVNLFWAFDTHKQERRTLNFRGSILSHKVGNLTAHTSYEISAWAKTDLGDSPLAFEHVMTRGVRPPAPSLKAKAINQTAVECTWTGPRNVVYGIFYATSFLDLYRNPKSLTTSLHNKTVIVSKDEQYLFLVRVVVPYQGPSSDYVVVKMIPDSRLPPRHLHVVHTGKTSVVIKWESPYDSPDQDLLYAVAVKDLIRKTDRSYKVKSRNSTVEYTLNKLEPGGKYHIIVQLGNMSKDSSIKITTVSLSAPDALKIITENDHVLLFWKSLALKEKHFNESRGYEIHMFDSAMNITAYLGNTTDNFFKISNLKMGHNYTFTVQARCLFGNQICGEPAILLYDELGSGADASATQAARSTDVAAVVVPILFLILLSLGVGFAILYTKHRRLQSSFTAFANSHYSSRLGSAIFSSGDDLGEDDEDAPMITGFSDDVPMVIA
myc and 6xHIS-tagged full-length SORLA ECD: residues 82-2137 of Q92673

Experiments:
[1] = target: myc and 6xHIS-tagged full-length SORLA ECD (UniProt Q92673); assay: pull-down; purified recombinant myc and 6xHIS-tagged SORLA ECD and ECD fragments as bait; endogenous HER2 from BT474 cell lysate; only the target purified
full-length SORLA-GFP = full-length SORLA-GFP (UniProt Q92673); assay: co-IP; SORLA-GFP constructs expressed in MDA-MB-361 cells; lysate (0.5% Triton X-100, 10 mM Pipes pH 6.8, 150 mM NaCl, 150 mM sucrose, 3 mM MgCl2) incubated with GFP-trap beads 1 h at +4 °C; blot for endogenous HER2
[2] = target: human epidermal growth factor receptor 2 (HER2), endogenous (human (endogenous in MDA-MB-361 and BT474)) (UniProt P04626); assay: co-IP; endogenous proteins in MDA-MB-361 and BT474 lysates (0.5% Triton X-100, 10 mM Pipes pH 6.8, 150 mM NaCl, 150 mM sucrose, 3 mM MgCl2); IP with mouse anti-HER2 antibody overnight at +4 °C, protein-G sepharose; isotype IgG control; blot for SORLA

| Substance | binding [1] | binding (full-length SORLA-GFP) | binding [2] |
| --- | --- | --- | --- |
| human epidermal growth factor receptor 2 (HER2), endogenous (from UniProt P04626 23-1255) | binds | binds | – |
| sortilin-related receptor 1 (SORLA), endogenous (from UniProt Q92673 82-2214) | – | – | binds |
